The test has as its target T1, TMEFF2 protein on the cell surface (PC3-TMEFF2 cells, LnCAP cells, cancer cell lines) (UniProt Q9UIK5).
T1 sequence (looked up): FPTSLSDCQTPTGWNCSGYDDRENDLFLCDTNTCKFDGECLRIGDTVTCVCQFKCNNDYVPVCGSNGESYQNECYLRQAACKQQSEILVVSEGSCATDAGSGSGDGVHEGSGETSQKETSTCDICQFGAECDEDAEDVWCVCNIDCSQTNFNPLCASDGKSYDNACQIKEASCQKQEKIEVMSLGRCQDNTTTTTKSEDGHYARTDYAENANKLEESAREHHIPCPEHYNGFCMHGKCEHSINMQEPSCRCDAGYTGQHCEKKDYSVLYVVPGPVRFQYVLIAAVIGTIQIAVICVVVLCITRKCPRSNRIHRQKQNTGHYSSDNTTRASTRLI
The test can be described thus: FACS on cancer cell lines.

Results are given in words; binding and its absence hold for the method and conditions named. Some entries that bind do so weakly or less than the wild type.

B1: TMEFF2#19 (ATCC Accession No. PTA-4127) (antibody, V domains shown)
VH: DVQLQESGPGLVKPSQSLSLTCSVTGYSITSGYYWSWIRQFPGNKLEWMGFISYDGSNKYNPSLKNRISITRDTSENQFFLNLRSVTTEDTATYYCARGLRRGDYSMDYWGQGTSVTVSS
VL: DIVMTQSQKFMSTSVGDSVSITCKASQNVVTAVAWYRQKPGQSPKLLIYSASNRHTGVPDRFTGSGSGTDFTLTINNMQSEDLADYFCQQYSSYPFTFGGGTKLEIK
Turning to B1, the binding result was “binds”.

The values are drawn from patent US20040096392A1.
